This passage reports binding results from PMC11078974.

The chains behind the UniProt entries cited, without tags or fusion partners. Where a name states a change or a piece, a line headed by the entry shows the natural chain unless it says otherwise.
UniProt O00311: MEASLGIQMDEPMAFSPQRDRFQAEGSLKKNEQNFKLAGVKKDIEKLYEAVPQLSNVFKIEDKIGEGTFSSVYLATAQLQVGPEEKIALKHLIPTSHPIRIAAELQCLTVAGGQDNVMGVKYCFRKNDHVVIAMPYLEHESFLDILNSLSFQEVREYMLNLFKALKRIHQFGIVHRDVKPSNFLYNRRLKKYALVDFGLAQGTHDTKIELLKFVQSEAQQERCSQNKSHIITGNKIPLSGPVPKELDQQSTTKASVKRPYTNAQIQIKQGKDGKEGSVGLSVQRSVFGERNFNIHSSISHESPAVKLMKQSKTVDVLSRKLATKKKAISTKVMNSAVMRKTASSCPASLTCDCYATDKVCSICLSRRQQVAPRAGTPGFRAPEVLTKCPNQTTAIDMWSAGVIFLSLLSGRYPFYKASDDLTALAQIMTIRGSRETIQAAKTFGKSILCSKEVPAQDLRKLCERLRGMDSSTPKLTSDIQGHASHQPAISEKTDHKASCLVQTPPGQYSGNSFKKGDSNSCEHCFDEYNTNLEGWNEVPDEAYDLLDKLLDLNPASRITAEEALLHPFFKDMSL
UniProt Q9NS91: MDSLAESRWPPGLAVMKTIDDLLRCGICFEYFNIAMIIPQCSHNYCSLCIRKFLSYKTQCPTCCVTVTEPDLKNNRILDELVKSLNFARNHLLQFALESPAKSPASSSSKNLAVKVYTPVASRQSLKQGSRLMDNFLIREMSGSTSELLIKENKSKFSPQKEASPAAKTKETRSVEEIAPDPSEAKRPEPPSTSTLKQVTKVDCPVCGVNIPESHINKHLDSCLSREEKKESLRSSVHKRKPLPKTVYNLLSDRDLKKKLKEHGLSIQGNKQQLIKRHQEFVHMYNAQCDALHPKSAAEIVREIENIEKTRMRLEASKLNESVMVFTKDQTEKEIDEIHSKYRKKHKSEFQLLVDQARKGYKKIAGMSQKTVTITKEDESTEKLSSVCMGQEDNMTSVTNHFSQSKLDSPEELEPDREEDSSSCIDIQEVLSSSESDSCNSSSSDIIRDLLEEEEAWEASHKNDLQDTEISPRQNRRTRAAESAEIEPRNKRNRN
UniProt O60934: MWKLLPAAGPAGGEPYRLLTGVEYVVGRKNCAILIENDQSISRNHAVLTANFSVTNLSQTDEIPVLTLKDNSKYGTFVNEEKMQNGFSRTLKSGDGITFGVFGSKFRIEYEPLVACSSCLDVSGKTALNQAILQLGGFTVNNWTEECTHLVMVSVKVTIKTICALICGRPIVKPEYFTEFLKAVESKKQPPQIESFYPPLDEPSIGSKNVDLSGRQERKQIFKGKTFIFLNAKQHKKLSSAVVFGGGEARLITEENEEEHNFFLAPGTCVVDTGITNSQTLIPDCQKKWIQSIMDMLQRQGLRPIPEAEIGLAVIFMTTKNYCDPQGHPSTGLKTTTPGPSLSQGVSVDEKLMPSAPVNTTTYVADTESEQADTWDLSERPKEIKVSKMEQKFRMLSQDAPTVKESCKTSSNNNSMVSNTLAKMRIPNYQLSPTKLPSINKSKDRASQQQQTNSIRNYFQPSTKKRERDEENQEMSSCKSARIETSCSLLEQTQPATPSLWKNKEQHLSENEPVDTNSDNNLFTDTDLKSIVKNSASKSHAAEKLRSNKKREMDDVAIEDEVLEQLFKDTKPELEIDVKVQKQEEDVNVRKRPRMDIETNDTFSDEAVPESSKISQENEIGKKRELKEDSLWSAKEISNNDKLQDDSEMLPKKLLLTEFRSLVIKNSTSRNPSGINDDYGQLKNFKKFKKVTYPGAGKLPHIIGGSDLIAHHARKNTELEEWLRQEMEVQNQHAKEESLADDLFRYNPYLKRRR

No constants are given. Whether binding was seen depends on the method and setting. In cells and extracts the contact can be indirect. Some binding calls cover weakened binding; strength is not graded here. For some assays here: Sequences can lack the tags named with a protein.

One test has as its target HA-CDC7 (UniProt O00311). The experiment in a line: co-IP; HEK293T cells transfected with WT or 3A SFB-RAD18 and HA-CDC7; lysates immunoprecipitated with anti-HA beads, blot with Flag and HA antibodies.
The target of the next test is T1, His-RAD51C (UniProt O43502).
T1 sequence: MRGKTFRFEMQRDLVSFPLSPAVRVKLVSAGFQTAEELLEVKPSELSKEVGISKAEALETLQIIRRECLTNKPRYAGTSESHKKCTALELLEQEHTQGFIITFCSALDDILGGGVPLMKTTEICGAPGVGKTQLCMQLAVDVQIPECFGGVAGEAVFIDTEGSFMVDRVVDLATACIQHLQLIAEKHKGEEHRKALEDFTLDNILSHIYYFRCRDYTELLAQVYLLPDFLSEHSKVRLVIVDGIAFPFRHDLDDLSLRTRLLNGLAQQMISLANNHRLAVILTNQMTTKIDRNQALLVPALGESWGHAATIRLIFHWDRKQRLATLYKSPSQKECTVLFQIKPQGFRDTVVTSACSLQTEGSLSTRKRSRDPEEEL
Kind of test: pull-down; purified His-RAD51C on beads incubated with lysates of OGT knock-down HEK293T cells expressing SFB-RAD18, cells with glucose (60 mM) and TMG (5 uM) or not; HEPES buffer, 4 °C, 2 h; only the target purified.

Test [1] deals with His-RAD18 3A (S130A/S164A/T468A) (human) (UniProt Q9NS91). The experiment in a line: pull-down; purified His-RAD18 on beads incubated with HEK293T cell lysates expressing HA-CDC7 in HEPES buffer (150 mM NaCl, 1% Triton X-100), 4 °C, 2 h; blot with HA antibody; only the target purified.
Test [2] concerns the target SFB-RAD18 (WT) (human) (UniProt Q9NS91). The experiment in a line: co-IP; Supplementary Fig. 3; in the presence or absence of UV treatment; constructs and bait not shown.
Test [3] has as its target SFB-RAD18 3A (S130A/S164A/T468A) (human) (UniProt Q9NS91). Described as above.
The next test addresses Flag-RAD18 (human) (UniProt Q9NS91). Kind of test: co-IP; HEK293T cells co-transfected; whole cell lysates in HEPES buffer (50 mM HEPES pH 7.5, 150 mM NaCl, 1% Triton X-100); anti-Flag M2 agarose; with or without UV (15 J m^-2), OGT knock-down, glucose (60 mM) and TMG (5 uM).
For test [4], the target named is SFB-RAD18 (WT) (human) (UniProt Q9NS91). Described as above.
The target is the same in test [5]. The experiment in a line: co-IP; chromatin (triton-insoluble) fraction of co-transfected HEK293T cells, anti-Flag M2 beads; glucose (60 mM) and TMG (5 uM); after UV (15 J m^-2); OGT knock-down in one panel.
Test [6] addresses SFB-RAD18 3A (S130A/S164A/T468A) (human) (UniProt Q9NS91). The description is as above.
For test [7], the target named is GFP-RAD18 3A (S130A/S164A/T468A) (human) (UniProt Q9NS91). The experiment in a line: co-IP; RAD18-depleted HEK293T cells transfected with WT or 3A GFP-RAD18 and SFB-RAD51C; immunoprecipitation with anti-GFP agarose, blot with Flag and GFP antibodies (the legend says that the lysates were denatured).
A further test has as its target GFP-RAD18 (WT) (human) (UniProt Q9NS91). Described as above.

Take “SFB-RAD18 (WT) (from UniProt Q9NS91 1-495) (enzyme)”: the binding result in the test with HA-CDC7 and with His-RAD51C was “binds” each time. Take “SFB-RAD18 3A (S130A/S164A/T468A) (from UniProt Q9NS91 1-495) (enzyme)”: the binding entry in the test with HA-CDC7 is “binds”.

With “HA-CDC7 (from UniProt O00311 1-574) (enzyme)”, the binding entry in test [1] is listed as “binds”. Regarding “Nijmegen breakage syndrome 1 (NBS1) (from UniProt O60934 1-754)”, the binding entry (with SFB-RAD18 (WT) (human) [2]; in [3]) was “binds” in each case.

B1: Myc-OGT (enzyme, UniProt O15294 1-1046)
chain: MASSVGNVADSTEPTKRMLSFQGLAELAHREYQAGDFEAAERHCMQLWRQEPDNTGVLLLLSSIHFQCRRLDRSAHFSTLAIKQNPLLAEAYSNLGNVYKERGQLQEAIEHYRHALRLKPDFIDGYINLAAALVAAGDMEGAVQAYVSALQYNPDLYCVRSDLGNLLKALGRLEEAKACYLKAIETQPNFAVAWSNLGCVFNAQGEIWLAIHHFEKAVTLDPNFLDAYINLGNVLKEARIFDRAVAAYLRALSLSPNHAVVHGNLACVYYEQGLIDLAIDTYRRAIELQPHFPDAYCNLANALKEKGSVAEAEDCYNTALRLCPTHADSLNNLANIKREQGNIEEAVRLYRKALEVFPEFAAAHSNLASVLQQQGKLQEALMHYKEAIRISPTFADAYSNMGNTLKEMQDVQGALQCYTRAIQINPAFADAHSNLASIHKDSGNIPEAIASYRTALKLKPDFPDAYCNLAHCLQIVCDWTDYDERMKKLVSIVADQLEKNRLPSVHPHHSMLYPLSHGFRKAIAERHGNLCLDKINVLHKPPYEHPKDLKLSDGRLRVGYVSSDFGNHPTSHLMQSIPGMHNPDKFEVFCYALSPDDGTNFRVKVMAEANHFIDLSQIPCNGKAADRIHQDGIHILVNMNGYTKGARNELFALRPAPIQAMWLGYPGTSGALFMDYIITDQETSPAEVAEQYSEKLAYMPHTFFIGDHANMFPHLKKKAVIDFKSNGHIYDNRIVLNGIDLKAFLDSLPDVKIVKMKCPDGGDNADSSNTALNMPVIPMNTIAEAVIEMINRGQIQITINGFSISNGLATTQINNKAATGEEVPRTIIVTTRSQYGLPEDAIVYCNFNQLYKIDPSTLQMWANILKRVPNSVLWLLRFPAVGEPNIQQYAQNMGLPQNRIIFSPVAPKEEHVRRGQLADVCLDTPLCNGHTTGMDVLWAGTPMVTMPGETLASRVAASQLTCLGCLELIAKNRQEYEDIAVKLGTDLEYLKKVRGKVWKQRISSPLFNTKQYTMELERLYLQMWEHYAAGNKPDHMIKPVEVTESA
Take B1: the binding entry with Flag-RAD18 (human) is “binds”.

B2: SIVA1 apoptosis-inducing factor (protein, UniProt O15304 1-175)
chain: MPKRSCPFADVAPLQLKVRVSQRELSRGVCAERYSQEVFEKTKRLLFLGAQAYLDHVWDEGCAVVHLPESPKPGPTGAPRAARGQMLIGPDGRLIRSLGQASEADPSGVASIACSSCVRAVDGKAVCGQCERALCGQCVRTCWGCGSVACTLCGLVDCSDMYEKVLCTSCAMFET
B2: the binding entry (with SFB-RAD18 (WT) (human) [2]; in test [3]) was “binds” in each case.

B3: GFP-Polη (enzyme, UniProt Q9Y253 1-713)
chain: MATGQDRVVALVDMDCFFVQVEQRQNPHLRNKPCAVVQYKSWKGGGIIAVSYEARAFGVTRSMWADDAKKLCPDLLLAQVRESRGKANLTKYREASVEVMEIMSRFAVIERASIDEAYVDLTSAVQERLQKLQGQPISADLLPSTYIEGLPQGPTTAEETVQKEGMRKQGLFQWLDSLQIDNLTSPDLQLTVGAVIVEEMRAAIERETGFQCSAGISHNKVLAKLACGLNKPNRQTLVSHGSVPQLFSQMPIRKIRSLGGKLGASVIEILGIEYMGELTQFTESQLQSHFGEKNGSWLYAMCRGIEHDPVKPRQLPKTIGCSKNFPGKTALATREQVQWWLLQLAQELEERLTKDRNDNDRVATQLVVSIRVQGDKRLSSLRRCCALTRYDAHKMSHDAFTVIKNCNTSGIQTEWSPPLTMLFLCATKFSASAPSSSTDITSFLSSDPSSLPKVPVTSSEAKTQGSGPAVTATKKATTSLESFFQKAAERQKVKEASLSSLTAPTQAPMSNSPSKPSLPFQTSQSTGTEPFFKQKSLLLKQKQLNNSSVSSPQQNPWSNCKALPNSLPTEYPGCVPVCEGVSKLEESSKATPAEMDLAHNSQSMHASSASKSVLEVTQKATPNPSLLAAEDQVPCEKCGSLVPVWDMPEHMDYHFALELQKSFLQPHSSNPQVVSAVSHQGKRNPKSPLACTNKRPRPEGMQTLESFFKPLTH
B3: the binding result (in the test with SFB-RAD18 (WT) (human) [4]; with SFB-RAD18 (WT) (human) [5]; in test [6]) was “binds” in each case.

B4: SFB-RAD51C (protein, UniProt O43502 1-376)
chain: T1 sequence
For the molecule B4, the binding result in test [7] is reported as “binds weakly”; with GFP-RAD18 (WT) (human), “binds”.
